The campaign covered roughly 53,000 sequences. About 3,700 (7%) were called active.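 How the source made its calls: active means gene knockdowns whose robust z-score for IL-1 alpha signal is at least 2 or at most -2, so actives lie on both sides; inactive means the rest.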 This is one part of the list.

The assay in a line: Components of the Cytosolic LPS Sensing Pathway: Gene Identification via Genome-wide siRNA Screen.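 Further: robust z of the log signal after scaling to non-targeting control siRNA wells of the plate.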 To be noted: RAW264.7 macrophages, IL-1a HTRF, actives lie on both sides, screened at 100 nM (by protocol), cells primed 5 h with Pam3CSK4 first. In outline:
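RAW264.7 mouse macrophages reverse-transfected with single siRNAs (100 nM final) for 48h, primed with Pam3CSK4 for 5 hours, then transfected with LipidA for 24 hour. Supernatant IL-1a read by HTRF; values normalized to negative-control median, log-transformed robust z-scores.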
(Time-resolved FRET reads energy transfer from a long-lived donor to a nearby acceptor.)
Turning to GGAGAAGAAGCAGAGAGAATT against Ccdc61, the z-score was inactive: 0.181.
In the case of GCGAUAGAAGCACUCCAAGTT against Bub1b, the z-score was inactive: -0.485.
Then CCCUUCACAACUUCUUAAUTT against Olfr872, with inactive: 1.4; and GCUUCGUAAAGUUUGCACUTT against Exosc10, with inactive: 0.112; and GGUCAUUGAUCUCAGCAACTT against Optc, with inactive: -0.427.
Turning to CCAGCCUCUUCUAAUACACTT against Preb, the z-score is inactive: -0.413.
Then GCUGCUACGCCAAACUUAATT against Ssx2ip, with inactive: -0.202; and GCCAUGUACUCCUUACUGGTT against Mrc1, with inactive: -0.068.
As to GGAUGACAGUGGGAAGAAGTT against Rgp1, the z-score was inactive: -1.22.
Turning to GGCAACUCAUGAACUCUCGTT against Tifab, the z-score was inactive: 1.32.
On to GGAUAUAUACACGGAGAACTT against Nod2, for which the z-score was inactive: -0.675.
Consider CCUAGGGACAUUGGUUAUUTT against Sema4f, for which the z-score is active: 2.16.
On to GGGAAAUCUAUUUUUGUGATT against Mob3c, for which the z-score is inactive: -1.77.
Then CCCACCUAAAGAGAACAAATT against Bbof1, with inactive: -0.87; and CCGUGUGGUCUGAUAAAAGTT against Fbxl8, with inactive: -0.714.
As for GGGUAUUCUGUACCCAGUGTT against Cpsf4l, the z-score was inactive: -0.273.
GCUACUUCGGGAAUUUUACTT against Ttc21a: the z-score was inactive: -1.16.
As for GGUUUCUGAUUUCAUCAGUTT against Prl5a1, the figure is inactive: 0.35; as for GCAGCACCUAAUGGGCAAATT against Bcl9l, inactive: 1.86; as for GCUCGUACAAUGCAUUGCCTT against Thnsl1, inactive: -0.474.
As to GGAGAUUAGUUACUUCCAGTT against Slc1a7, the z-score is active: 3.5.
Consider GGACCAGCUGAUAGAAGUCTT against Ap3b2, for which the z-score is inactive: 1.81.
As for GGACGACAAUCGACAAUCGTT against Acta1, the z-score was inactive: -0.384.
For GGGAAAAGAACUUGCAUGUTT against Tmsb4x, the z-score is inactive: -0.352.
For GGCACUUUCGGGAAUUCACTT against Nup160, the z-score is active: -2.5.
GGAAGAGGAGGAAAACUUGTT against Fam135b: the z-score is inactive: -0.653.
Turning to GGGACUUCUUGUGAAUGGATT against Mobp, the z-score was inactive: 0.993.
With CGAAGUGUGGCUGAUUCAGTT against Hebp2, the z-score is inactive: 0.547.
In the case of GGAAUACCUGCUUUUAUUUTT against Timmdc1, the z-score was inactive: 0.947.
For CCCUUGAAGAUCACUUAGCTT against Apln, the z-score is inactive: 0.284.
As for GCUGUUUCUACAUCAUCUATT against Nup210, the figure is inactive: 0.739.
Take GCUUAAAUGUUCUCUGUUCTT against Adgrd1: the z-score is inactive: -0.601.
Then GGCACUCAAUAAAUAUUUGTT against Tubb5, with inactive: -0.356.
With GGUGCUAAUCCCAAUUUGATT against Cdkn2c, the z-score is inactive: 0.262.
As for GGUGUACCAAGCUGUGACATT against Rgmb, the figure is inactive: -0.401; as for GGGAAUUGAUGAAAGCUCUTT against Gigyf2, inactive: -0.369.
Turning to CCUGAAGGGUCUGGCAAAATT against Zfp804a, the z-score was inactive: 0.66.
Then CCCACUGCUCUAUUCAACUTT against Olfr484, with inactive: -0.661; and GGAUUUUGAUCUAAUGAGATT against Zfp354c, with inactive: 0.366; and GGACAGCAAAAAAGAUGUGTT against Myo6, with inactive: -0.446.
With GCAUUCCAAAUGGUAGACATT against Lgals4, the z-score is inactive: -0.357.
Consider GGAGCAAGCAUGCAAGGUGTT against Cstf2, for which the z-score is inactive: 0.916.
Then GGAAAAAGAUAGAACCAGATT against Larp1b, with inactive: -0.177; and GGCAUGGACAUUGAUGACATT against Dnajb1, with inactive: -0.834; and GGCAUGUAUCAUUUUGUCATT against Pde12, with inactive: -1.12.
As to GGAUGCAAUCGACAUGGAGTT against Atp5pb, the z-score is active: 2.71.
As for GGAAAUAAGACCAACAUACTT against Arhgap19, the figure is inactive: 0.0474; as for GGUGUUGUGAAGUCUUUUGTT against Xk, inactive: 0.859; as for GGCCAGUCACUAAAAUCACTT against Mbd3l1, inactive: 0.169.
With GCGCAGAACAGCCCUAUAATT against Ndufs5, the z-score was inactive: -1.27.
With GGAUCCUUACAAUAACAUUTT against Mmut, the z-score was active: 2.04.
Consider GCUCAUGUUGCUGUUAAUATT against Haus6, for which the z-score was inactive: 0.463.
Turning to GGCAUUAAGAUCAUUAAGCTT against Myadm, the z-score is inactive: 0.674.
In the case of GGAUGUCUGUACAUACAGATT against Tshb, the z-score was inactive: 0.661.
As for GCGGAAGGUUUACAAUGAUTT against Dyrk1a, the figure is inactive: -0.323; as for CGAGAGAACUCUCACCUAUTT against Spata21, inactive: -1.13.
On to GGAGGAUGGAGUCAUAUAUTT against Gm773, for which the z-score is inactive: -0.41.
As for GGCAAUUGUGCUAUUGAGUTT against AA986860, the figure is inactive: -1.4; as for GGAUCUUUUCCAACAAAUATT against Tmsb15a, inactive: -0.612; as for ACGACGAUCUUUCAGAAGUTT against N4bp2, inactive: 1.28.
As to GGAUCAUGAGAAUAUCAUCTT against P4hb, the z-score was inactive: 0.816.
GACUUCAGACAAAUAGUGCTT against Lce1i: the z-score was inactive: -1.24.
As for CCAGAAUGUUACAUGCAGGTT against Vmn2r7, the figure is inactive: -0.241; as for GGAGAGAACUGAUGAAUCCTT against Sdhaf2, inactive: -0.26; as for GCUACCUCUUGCAUGGGAGTT against Bivm, inactive: -0.0737.
Turning to GCAUCAUUCGCUGUGAUGATT against Trim23, the z-score was inactive: -1.55.
With GGAAGAAAUGCAGUUCUAATT against Nhlrc3, the z-score is inactive: 0.145.
For GGAUAGGGUCCAUCAUGGATT against Rcn3, the z-score was inactive: -0.891.

The values above are taken from PubChem BioAssay AID1508600 (Functional Genomics Laboratory (NCATS/FGL), 2020).
